In paper PMC11747444:
These are yes or no findings as the source states them, for the method shown. In cells and extracts the contact can be indirect. Some entries that bind do so weakly or less than the wild type.

By UniProt entry, the sequences of proteins in these tests, tags left out. Where a name states a change or a piece, a line headed by the entry shows the natural chain unless it says otherwise.
UniProt P14635: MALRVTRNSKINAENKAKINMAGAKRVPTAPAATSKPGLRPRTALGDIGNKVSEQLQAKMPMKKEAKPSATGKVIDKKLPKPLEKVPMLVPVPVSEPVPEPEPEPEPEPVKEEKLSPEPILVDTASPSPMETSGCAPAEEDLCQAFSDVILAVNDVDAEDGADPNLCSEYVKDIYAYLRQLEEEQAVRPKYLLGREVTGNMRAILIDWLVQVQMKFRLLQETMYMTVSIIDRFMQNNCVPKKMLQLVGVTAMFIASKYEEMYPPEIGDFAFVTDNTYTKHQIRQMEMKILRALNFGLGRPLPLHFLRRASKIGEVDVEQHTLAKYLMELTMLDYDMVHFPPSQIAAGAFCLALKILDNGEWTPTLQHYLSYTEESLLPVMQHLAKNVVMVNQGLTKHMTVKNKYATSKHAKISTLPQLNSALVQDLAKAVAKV

Legend:
[1] = molecular target: mNeonGreen (mNG)-tagged wild-type cyclin B1 (human) (UniProt P14635); assay: co-IP; mNeonGreen-trap magnetic agarose beads on lysates (NETN buffer) of doxycycline-induced HeLa mNG-cyclin B1^wt/mut cells enriched in mitosis (nocodazole; for Mad1 and APC3 cells depleted of cyclin B1 and B2); immunoblot
[2] = molecular target: mNeonGreen (mNG)-tagged phosphate-binding pocket mutant cyclin B1 (R307E, H320F, K324E) (human) (UniProt P14635); assay: as above

binding [1]: binds | binding [2]: binds
B1: endogenous Mad1 (protein, UniProt Q9Y6D9 1-718)
chain: MEDLGENTMVLSTLRSLNNFISQRVEGGSGLDISTSAPGSLQMQYQQSMQLEERAEQIRSKSHLIQVEREKMQMELSHKRARVELERAASTSARNYEREVDRNQELLTRIRQLQEREAGAEEKMQEQLERNRQCQQNLDAASKRLREKEDSLAQAGETINALKGRISELQWSVMDQEMRVKRLESEKQELQEQLDLQHKKCQEANQKIQELQASQEARADHEQQIKDLEQKLSLQEQDAAIVKNMKSELVRLPRLERELKQLREESAHLREMRETNGLLQEELEGLQRKLGRQEKMQETLVGLELENERLLAKLQSWERLDQTMGLSIRTPEDLSRFVVELQQRELALKDKNSAVTSSARGLEKARQQLQEELRQVSGQLLEERKKRETHEALARRLQKRVLLLTKERDGMRAILGSYDSELTPAEYSPQLTRRMREAEDMVQKVHSHSAEMEAQLSQALEELGGQKQRADMLEMELKMLKSQSSSAEQSFLFSREEADTLRLKVEELEGERSRLEEEKRMLEAQLERRALQGDYDQSRTKVLHMSLNPTSVARQRLREDHSQLQAECERLRGLLRAMERGGTVPADLEAAAASLPSSKEVAELKKQVESAELKNQRLKEVFQTKIQEFRKACYTLTGYQIDITTENQYRLTSLYAEHPGDCLIFKATSPSGSKMQLLETEFSHTVGELIEVHLRRQDSIPAFLSSLTLELFSRQTVA
